# Measurements: PubChem BioAssay AID493014 (National Center for Advancing Translational Sciences (NCATS), 2011)
# The list shows a part of the results. These are further read-outs of the screen, such as a control signal, another cell line or another target. No call is given for them. Most of these compounds were active or inconclusive in the main read-out, so they are no random draw. Potencies come from curve fits of mixed quality, noted in brackets.
# Experiment: qHTS Assay to Find Inhibitors of Chronic Active B-Cell Receptor Signaling
# Details: ABC-DLBCL IkBa-CBG/CBR reporter, luminescence ratio (green luciferase fused to IkBa over red control in TMD8 lymphoma cells), 4 h
# Outline: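 TMD8 human ABC-DLBCL cells with doxycycline-inducible IκBα–green luciferase fusion and unfused red luciferase, in 0.5% FBS medium; compounds up to 46 uM, 4 h at 37C. Green/red luminescence ratio, filter-overlap corrected, fitted to concentration-response curves.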
# [1] = measured here: CBR red luminescence, cell number
# [2] = measured here: IkBa-CBG green luminescence
SMILES,AC50 [1],AC50 [2]
COc1ccccc1CNS(=O)(=O)c1cc2c3c(c1)CCN3C(=O)CC2,"1.46 µM [falling, full curve, poor fit]",–
CCc1ccc(C(O)(CNCc2ccccc2)c2ccccc2)cc1 (stereo not drawn),"3.55 µM [falling, single point]",–
COc1ccc(Cl)cc1NC(=O)CN(C)CC(=O)Nc1ccccc1N1CCOCC1,"0.1 µM [falling, full curve, poor fit]","12.6 µM [falling, single point]"
Cc1ccc(/C=[N+](/C)[O-])cc1,"35.5 µM [falling, single point]",–
CC(C)c1ccc(S(=O)(=O)N2CCN(C(=O)c3cccc(F)c3)CC2)cc1,"7.31 µM [falling, partial curve, poor fit]",–
Cn1cccc1CC(=O)NNC(=O)Nc1ccccc1F,"4.11 µM [falling, partial curve]",–
Cc1cc(C)cc(OCC(=O)OCC(=O)NC2CCCC2)c1,"6.51 µM [rising, single point]",–
COc1ccc(-c2nc(C(=O)NCC3CCCO3)cc3c2[nH]c2ccccc23)cc1 (stereo not drawn),"10 µM [falling, partial curve, poor fit]",–
CCN(Cc1cnn(C)c1)C(=O)c1ccc2nc(Cc3cccc(Cl)c3)oc2c1,"11.2 µM [falling, single point]",–
CN(C)c1ccc(N/C=C/C(=O)c2ccccc2)cc1,"23.1 µM [falling, partial curve, poor fit]",–
CC(C)C(NC(=O)c1cccs1)c1nnc(SCC(=O)Nc2nccs2)n1C (stereo not drawn),"6.51 µM [falling, partial curve, poor fit]","7.31 µM [rising, partial curve, poor fit]"
C/C(=N\NC(=O)C1CCCN(S(=O)(=O)c2ccccc2)C1)c1ccccn1 (stereo not drawn),"23.1 µM [falling, partial curve, poor fit]",–
COC(=O)c1ccccc1NC(=O)c1ccc(Cn2cc(Cl)cn2)o1,"35.5 µM [falling, single point]",–
CCNC(=S)N(CCc1c(C)[nH]c2ccc(C)cc12)Cc1cccs1,"35.5 µM [falling, single point]","14.1 µM [rising, partial curve, poor fit]"
CC(C)OC(=O)c1c(NC(=O)C2CC=CCC2C(=O)O)sc2c1CCCCC2 (stereo not drawn),"22.4 µM [falling, partial curve, poor fit]",–
Cc1nc(NCc2ccccc2)sc1C(=O)Nc1ccccc1,"15.8 µM [falling, single point]",–
Cc1ccc(N2CC(C(=O)Nc3ccc(Br)cc3)CC2=O)cc1 (stereo not drawn),"0.794 µM [rising, full curve, poor fit]",–
COc1ccc(-n2ncc3c(NCCC4=CCCCC4)ncnc32)cc1,"5.62 µM [rising, full curve, poor fit]",–
CC1=Nc2ccccc2/C1=C/c1c(N)n2c(S(=O)(=O)CC(C)C)nsc2nc1=O,"11.2 µM [falling, partial curve]",–
COc1ccc(-c2oc3ncnc(NCCCN(C)C)c3c2-c2ccc(OC)cc2)cc1,"35.5 µM [falling, single point]",–
CCN1C(=O)c2cccc3c(NC(=O)c4cccc(N5C(=O)CCC5=O)c4)ccc1c23,"11.2 µM [rising, partial curve]","22.4 µM [falling, partial curve, poor fit]"

SMILES,AC50 [1],AC50 [2]
CCOC(=O)c1c(C)[nH]c2cc(Br)c(O)cc12,"28.2 µM [rising, single point]",–
CC1CCCCN1CC(=O)Nc1ccc2c(c1)OC(F)(F)O2 (stereo not drawn),"10 µM [rising, partial curve, poor fit]",–
CCc1ccc2oc(-c3cc(N)ccc3O)nc2c1,"0.326 µM [rising, full curve]",–
O=C(NCc1ccccn1)c1ccc2nc(-c3ccco3)c(-c3ccco3)nc2c1,–,"23.1 µM [rising, single point]"
CC(=O)c1ccc(-c2ccc([C@H]3[C@@H]4C=CCC[C@@]4(C)C(=O)N3Cc3ccccc3)c(F)c2)cc1,"6.31 µM [falling, single point]",–
O=c1c2ccccc2nnn1CSc1ccccc1,"3.66 µM [rising, single point]",–
O=C(Nc1ccc(OC(F)F)c(Cl)c1)c1cccc(OC(F)F)c1,"29.1 µM [falling, single point]",–
CCOc1ccc(CNc2ccc3c(c2)ncn3C)cc1,"6.51 µM [rising, full curve, poor fit]",–
CC(NC(=O)c1cc(Sc2ccc(F)cc2F)nc2ccccc12)c1ccccc1 (stereo not drawn),"12.6 µM [falling, single point]",–
COC(=O)c1ccc(COc2ccc(-c3nnn(CC(N)=O)n3)cc2)cc1,"0.794 µM [falling, full curve]",–
Cc1ccc(C)c(N2CCN(CCCNC(=O)Nc3cc(Cl)ccc3C)CC2)c1,"6.31 µM [rising, partial curve, poor fit]",–
CN(CC(=O)N1CCN(c2ccccn2)CC1)S(=O)(=O)c1ccc(Br)cc1,"14.1 µM [rising, single point]",–
Cc1nn(-c2ccccc2)c(Cl)c1/C=C(\C#N)C(=O)NC(C)C,"9.2 µM [falling, partial curve, poor fit]",–
COc1ccccc1C(=O)OCc1c(-c2ccccc2)ncc2ccccc12,"23.1 µM [falling, single point]",–
Cc1cc(=O)oc(C)c1C(=O)OCC(=O)c1ccc(Cl)cc1,"17.8 µM [rising, single point]",–
CCc1nnc(NC(=O)C2(C)COC(c3ccc(OC)cc3)OC2)s1 (stereo not drawn),"0.891 µM [rising, full curve]",–
COc1cc(CNc2ccccc2)c([N+](=O)[O-])cc1OC,"14.1 µM [rising, single point]",–
O=C1c2ccccc2NC(c2ccc(F)cc2)N1Cc1ccccc1 (stereo not drawn),"35.5 µM [falling, single point]",–
O=C(NCCc1ccccn1)C1CCCN(S(=O)(=O)Cc2ccccc2)C1 (stereo not drawn),"3.26 µM [falling, single point]",–
O=C1c2ccccc2C2=Nc3ccccc3SC(c3ccc(Cl)cc3)C12 (stereo not drawn),–,"14.6 µM [rising, partial curve, poor fit]"
COc1cnc(-c2ccccn2)nc1Oc1ccc(C(C)(C)C)cc1,"10 µM [rising, partial curve]","35.5 µM [falling, partial curve, poor fit]"

SMILES,AC50 [1],AC50 [2]
CC1CCCN(Cc2c(O)ccc3c(=O)c(-c4nc5ccccc5s4)c(N)oc23)C1 (stereo not drawn),"2.82 µM [falling, full curve, poor fit]",–
O=C(NC1CC2CCCC(C1)N2Cc1ccccc1)C1CCCCC1 (stereo not drawn),"7.08 µM [rising, partial curve]",–
C=CCn1c(COc2ccccc2)nnc1SCC(=O)C(C)(C)C,"25.9 µM [falling, partial curve, poor fit]",–
O=C1N=C(N2CCCC2)S/C1=C\C=C\c1ccccc1,"7.94 µM [falling, partial curve, poor fit]",–
COc1cc2c(cc1OC)C(c1ccc(C)cc1)NC(=O)C2 (stereo not drawn),"35.5 µM [rising, single point]",–
Cc1oc2nc(SCCCC(=O)NCCCO)nc(N)c2c1C,"20.6 µM [falling, single point]",–
O=C(CSc1ncn[nH]1)Nc1ccc(Br)cc1Br,"18.4 µM [falling, partial curve]",–
Cc1ccc(S(=O)(=O)Nc2cc(C(=O)NCCN3CCCC3)ccc2N2CCCCC2)cc1,"35.5 µM [falling, single point]",–
Clc1ccc(-c2nc(-c3cnccn3)no2)cc1,"31.6 µM [falling, single point]",–
O=C(COC(=O)c1n[nH]c2ccccc12)Nc1ccccc1Br,"11.6 µM [falling, partial curve, poor fit]",–
CCCCC(=O)Nc1ccc(C(=O)c2ccccc2)cc1,"2 µM [rising, partial curve, poor fit]",–
Cc1ccc(C)c(OCc2nc(-c3cccnc3)no2)c1,"12.6 µM [rising, partial curve, poor fit]",–
Cc1c(CN2CCC(C(=O)Nc3cccc(-c4cccc(Cl)c4)c3)CC2)cnn1C,"15.8 µM [falling, single point]",–
CC(C)c1ccc(NC(=O)c2csnn2)cc1,"0.461 µM [rising, partial curve]",–
O=C(COC(=O)C1CC1)Nc1ccc(N=Nc2ccccc2)cc1,"11.6 µM [rising, partial curve, poor fit]",–
CC(C)(C)OC(=O)NCCc1nnc(S(=O)(=O)Cc2ccc(Cl)cc2Cl)o1,"3.55 µM [falling, partial curve, poor fit]",–
Cc1cc[n+](-c2[nH]c(=O)sc2/C=N/NC([S-])=Nc2ccccc2)cc1C,"20.6 µM [rising, single point]",–
CC1CCc2cc(F)ccc2N1S(=O)(=O)c1ccc(Cl)nc1 (stereo not drawn),"10.3 µM [falling, partial curve, poor fit]",–
CCN(CC)S(=O)(=O)c1cc(NC(=O)C2CSC3(C)CCC(=O)N23)ccc1C (stereo not drawn),"20.6 µM [rising, single point]",–
CCCN1C=CC(=C2C(=O)c3ccccc3C2=O)C=C1,"3.26 µM [falling, partial curve, poor fit]",–
O=C(O)c1cc([N+](=O)[O-])cc2c1nnn2O,"25.1 µM [rising, single point]",–

# 3 of the compounds above, bar-delimited.
SMILES | AC50 [1] | AC50 [2]
O=C(NC1CC2CCCC(C1)N2Cc1ccccc1)C1CCCCC1 (stereo not drawn) | 7.08 µM [rising, partial curve] | –
Cc1cc[n+](-c2[nH]c(=O)sc2/C=N/NC([S-])=Nc2ccccc2)cc1C | 20.6 µM [rising, single point] | –
CC1CCc2cc(F)ccc2N1S(=O)(=O)c1ccc(Cl)nc1 (stereo not drawn) | 10.3 µM [falling, partial curve, poor fit] | –
